# Assay results taken from US4994446A, “Drug system” (Ramot - University Authority for Applied Research and …, priority 1989, dated 1991).
# Structures can show the parent of a compound that is named as a salt. At least one read-out could not be matched to a standard name with certainty.
# System: NMDA receptor channel
# Assay: Dissociation of [3H]MK-801-receptor complexes, initiated by 100 μM unlabeled PCP
# Assay type: binding, rat
# Method: Binding assays were performed in triplicate at 25° C. with repeatedly washed rat cerebral cortex membranes (80 μg protein) as described in Biochem. ibid. Assays were carried out in the absence or in the presence of 10^-4 M AP-5, or in the presence of 10 μM MgCl2 together with 1 μM L-glutamate and 1 μM glycine. Nonspecific binding was determined in samples containing 10^-4 M PCP. Data were expressed as the specific binding of [^3 H]MK-801 and analyzed according to the two-step binding model of interactions between noncompetitive blockers and the NMDA receptor channel. The model assumes a first order diffusion of the ligand from the outside into the interior of the channel, followed by association of the ligand with its receptor sites. Under the two extreme conditions employed here, viz., binding of [^3 H]MK-801 in the presence of agonists (unlimited diffusion) and in the absence of agonists (limited diffusion) the time courses of receptor occupation should respectively follow pseudo first order (eq. 1) and first order (eq. 2) kinetics:
# Samples were incubated at 25° C. with 8 nM [^3 H] 801 for 2 hr. The dissociation reaction was initiated by the addition of 100 μM unlabeled PCP. […] Reactions were terminated either immediately (zero time) or at the indicated times. Bo --amount of [^3 H]MK-801 bound at zero time. Bt --amount of [^3 H] 801 bound at time t.
smiles,measurement,setting,value
"C[C@]12N[C@H](Cc3ccccc31)c1ccccc12 [[^3 H]MK-801, (+) 5 methyl-10,11 dihydro-5H-dibenzo[a,d]cyclohepten-5,10-imine maleate]",dissociation half time,1 μM glutamate + 1 μM glycine,4 min
same,dissociation half time,addition of 1 μM glutamate,18 min
same,dissociation half time,"control, without added agonists",180 min
